Values joined by “and” are separate entries in the source; they are usually repeats but may differ in a detail not shown here. Identical values can stand only once. The hits were mostly taken out for another list; the other results follow. Inconclusive results are not listed. Active and inactive are the calls of the source. Calls follow the shape of the full dose curve; tested in HEK293 cells.
% is scaled to controls: 0 for no effect and ±100 for the full control effect.

The nature of the assay: qHTS for Inhibitors of binding or entry into cells for Marburg Virus. The conditions noted are these: Marburg virus pseudotype entry/binding inhibition, cell-based; at 49.2 µM (top of the series).
As to `O=C(CCCCCCC(=O)Nc1ccccc1)NO`, the activity change, negative = inhibition is inactive: -7.8% and inactive: -10.1%.

The record behind these values is PubChem BioAssay AID720532 (National Center for Advancing Translational Sciences (NCATS), 2013).
